Experimental data: PubChem BioAssay AID602196 (INSERM, 2012)

Purpose: 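Genes whose knock-down alters cisplatin killing of lung cancer cells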
System: human A549 lung cancer cells
Knock-down reagent: siRNA pair against human genes
Time to read-out: 48 h transfection before cisplatin; time from cisplatin to read-out not stated
Conditions: cisplatin at a dose killing half of control-siRNA cells; exact dose and duration not given
Detection: 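Cisplatin cell death as a shift from the 50% death seen with control siRNA; siRNAs toxic or growth-blocking alone scored 0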
Direction: two-siRNA summed score (-2 to +2): higher = both siRNAs protect from cisplatin killing; -2 means both sensitise
Active means: 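siRNAs harmful alone (LDH or WST-1) get 0; others get +1 for less and -1 for more cisplatin killing; genes are active when the two siRNAs give the same sign, summing to ±2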
Calls: active = both siRNAs shift cisplatin killing the same way; inactive = no consistent shift, or siRNA harmful alone
Here is a random part of about 23,000 reagents tested. Over the whole deposit, 455 (2%) got an active call. 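Active includes both protection and sensitisation; some change values fall well beyond the stated -50 to +50 range.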 Not all columns of the deposit are shown. Not given: the amount of reagent.

target | two-siRNA summed score (-2 to +2) | call
SLCO3A1 | 0 | inactive
C5orf34 | 0 | inactive
DCUN1D5 | 0 | inactive
SERPINB6 | 0 | inactive
ARHGAP35 | 2 | active
WDFY4 | 0 | inactive
CFAP157 | 0 | inactive
SAA4 | 0 | inactive
LOC440121 | 1 | inactive
LOC440091 | 0 | inactive
LOC442524 | 1 | inactive
ARL6IP1 | 0 | inactive
LOC440746 | 0 | inactive
SLC35F5 | 0 | inactive
LOC391051 | 0 | inactive
SUCNR1 | 0 | inactive
LOC441072 | 0 | inactive
LEKR1 | 0 | inactive
CXorf38 | -1 | inactive
ALPK3 | 2 | active
PPM1M | 1 | inactive
LOC391767 (retired record) | 1 | inactive
LOC389142 | 0 | inactive
CEP152 | 0 | inactive
CDKL3 | 1 | inactive
CEP290 | 0 | inactive
USP6 | 0 | inactive
HOXD1 | 0 | inactive
ERRFI1 | 0 | inactive
OR9Q2 | 0 | inactive
AGAP2 | 0 | inactive
LOC391809 | 0 | inactive
ZNF616 | 0 | inactive
KCNMB1 | -1 | inactive
CRK | 0 | inactive
LINC00174 | 0 | inactive
TBC1D32 | 1 | inactive
LOC441898 | 0 | inactive
KIAA0492 | 1 | inactive
MAP7 | 0 | inactive
AK7 | 0 | inactive
LOC441363 | -1 | inactive
IFI30 | 0 | inactive
CYRIA | 0 | inactive
DDX60 | 1 | inactive
SH3GLB1 | 0 | inactive
ADGRB2 | 0 | inactive
CASKIN1 | 0 | inactive
HSCB | 0 | inactive
LOC401915 | -1 | inactive
CAPNS1 | 0 | inactive
NTNG1 | 2 | active
EVA1A | 1 | inactive
SPTSSB | 0 | inactive
KIAA1345 | 0 | inactive
ZNF543 | 0 | inactive
USP1 | 1 | inactive
LOC440886 | 0 | inactive
U2AF2 | 1 | inactive
MAT2A | -1 | inactive
OR4D2 | 1 | inactive
TRPV6 | 1 | inactive
LOC390823 | 0 | inactive
OR52R1 | 0 | inactive
LOC388122 | 2 | active
GALNTL5 | -1 | inactive
LCN1 | 0 | inactive
SPATA21 | 0 | inactive
PGK1 | 0 | inactive
LCE2D | 0 | inactive
IFNA10 | -1 | inactive
CUX2 | 0 | inactive
DIP2B | 0 | inactive
